Paper PMC3737532
Results are given in words; binding and its absence hold for the method and conditions named. Binding seen in cells or lysates may run through a third protein. Binding calls can cover weak binding; strength is not graded here. Tags and fused reporters may be left off the sequences shown.

Experiments:
[1] = target: T1, GFP-CARM1FL (human) (UniProt Q86X55); assay: co-IP; exogenous GFP-CARM1FL co-transfected with Flag-CARM1FL or Flag-CARM1ΔE15 into HEK293 cells (Supplementary Figure S1); which partner was precipitated is not told
T1 sequence: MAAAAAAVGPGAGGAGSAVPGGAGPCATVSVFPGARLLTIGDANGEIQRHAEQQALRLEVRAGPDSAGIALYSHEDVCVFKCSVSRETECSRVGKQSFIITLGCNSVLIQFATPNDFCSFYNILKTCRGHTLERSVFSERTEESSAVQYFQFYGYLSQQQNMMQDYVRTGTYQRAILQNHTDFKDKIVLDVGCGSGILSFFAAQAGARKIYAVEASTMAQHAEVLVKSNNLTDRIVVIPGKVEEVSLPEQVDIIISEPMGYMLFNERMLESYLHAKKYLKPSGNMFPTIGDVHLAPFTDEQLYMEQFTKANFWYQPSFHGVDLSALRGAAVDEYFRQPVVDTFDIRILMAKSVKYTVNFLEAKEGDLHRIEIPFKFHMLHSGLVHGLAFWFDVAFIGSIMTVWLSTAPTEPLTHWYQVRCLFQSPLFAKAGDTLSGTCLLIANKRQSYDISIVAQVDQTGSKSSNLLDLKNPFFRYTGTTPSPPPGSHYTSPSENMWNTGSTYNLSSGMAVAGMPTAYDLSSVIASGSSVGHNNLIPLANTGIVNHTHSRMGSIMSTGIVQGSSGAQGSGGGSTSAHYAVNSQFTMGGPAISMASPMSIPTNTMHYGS

[2] = target: T1, GFP-CARM1FL (human); assay: co-IP; GFP, GFP-CARM1FL or GFP-CARM1ΔE15 transiently transfected for 24 h; GFP fusion immunoprecipitated with GFP antibody; endogenous CARM1 in the immunoprecipitates detected by western blot with E16 Ab

binding [1]	binding [2]	Substance
binds		Flag-CARM1ΔE15 (human)
	binds	endogenous CARM1ΔE15 (human (endogenous in HEK293))
